Data as given in PubChem BioAssay AID743121 (NCATS, 2013)
Shown is an unselected part of about 26,000 deposited reagents. Over the whole deposit, 167 (0.63%) are marked active. 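Calls are per gene from RSA p-values that are not deposited; an individual active-marked siRNA can sensitise only weakly.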 A number with no mark means an inactive call. The numbers tell different reagents against one gene apart. Not all columns of the deposit are shown. Reagent sequences are not shown.

Assay: 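Genes whose silencing strengthens cell killing by camptothecin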 (primary screen)
Cell system: MDA-MB-231 cells, a human breast cancer line
Knock-down reagent: single siRNA against human genes, 20 nM siRNA (0.8 pmol per well)
Time to read-out: 120 h (drug added 48 h after transfection, read 72 h later)
Challenge: camptothecin 20 nM (about EC30) for 72 h; vehicle 0.1% DMSO in parallel plates
Read-out: 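CellTiter-Glo ATP signal, scaled to control siRNA as percent viability; sensitisation given as log2 of untreated divided by camptothecin-treated viability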
Scale: log2 vehicle/camptothecin viability: higher = stronger sensitisation to camptothecin; viability with camptothecin: higher = more viable cells
Units: viability with camptothecin in % of control
Call rule: 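Active genes have an RSA gene-level p-value below 0.001, computed from the ratios of their separate siRNAs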

MPG (GeneID 4350) #1
- log2 vehicle/camptothecin viability: -0.0868
- viability with camptothecin: 69.2

MPG (GeneID 4350) #2
- log2 vehicle/camptothecin viability: -0.163
- viability with camptothecin: 105

MPG (GeneID 4350) #3
- log2 vehicle/camptothecin viability: -0.308
- viability with camptothecin: 38.4

MPG (GeneID 4350) #4
- log2 vehicle/camptothecin viability: 0.136
- viability with camptothecin: 96

LRRC39 (GeneID 127495) #1
- log2 vehicle/camptothecin viability: -0.115
- viability with camptothecin: 66.4

LRRC39 (GeneID 127495) #2
- log2 vehicle/camptothecin viability: 0.238
- viability with camptothecin: 24.2

LRRC39 (GeneID 127495) #3
- log2 vehicle/camptothecin viability: -0.193
- viability with camptothecin: 74.2

LRRC39 (GeneID 127495) #4
- log2 vehicle/camptothecin viability: 0.617
- viability with camptothecin: 41.2

ALDH16A1 (GeneID 126133) #1
- log2 vehicle/camptothecin viability: -0.0846
- viability with camptothecin: 85.1

ALDH16A1 (GeneID 126133) #2
- log2 vehicle/camptothecin viability: 1.16
- viability with camptothecin: 35.7

ALDH16A1 (GeneID 126133) #3
- log2 vehicle/camptothecin viability: -0.314
- viability with camptothecin: 60.1

ALDH16A1 (GeneID 126133) #4
- log2 vehicle/camptothecin viability: -0.0566
- viability with camptothecin: 59

NFIB (GeneID 4781) #1
- log2 vehicle/camptothecin viability: -0.459
- viability with camptothecin: 112

NFIB (GeneID 4781) #2
- log2 vehicle/camptothecin viability: -0.121
- viability with camptothecin: 95

NFIB (GeneID 4781) #3
- log2 vehicle/camptothecin viability: -0.239
- viability with camptothecin: 114

NFIB (GeneID 4781) #4
- log2 vehicle/camptothecin viability: -0.188
- viability with camptothecin: 60.8

MGLL (GeneID 11343) #1
- log2 vehicle/camptothecin viability: -0.29
- viability with camptothecin: 83.5

MGLL (GeneID 11343) #2
- log2 vehicle/camptothecin viability: -0.39
- viability with camptothecin: 79.6

MGLL (GeneID 11343) #3
- log2 vehicle/camptothecin viability: -0.134
- viability with camptothecin: 90.7

MGLL (GeneID 11343) #4
- log2 vehicle/camptothecin viability: -0.104
- viability with camptothecin: 82.9

CLEC1B (GeneID 51266) #1
- log2 vehicle/camptothecin viability: 0.141
- viability with camptothecin: 47.7

CLEC1B (GeneID 51266) #2
- log2 vehicle/camptothecin viability: 0.914
- viability with camptothecin: 17.6

CLEC1B (GeneID 51266) #3
- log2 vehicle/camptothecin viability: 0.121
- viability with camptothecin: 64.1

CLEC1B (GeneID 51266) #4
- log2 vehicle/camptothecin viability: -0.251
- viability with camptothecin: 110

Already shown: an excerpt of the list.
NFIB (GeneID 4781) #1
- log2 vehicle/camptothecin viability: -0.459
- viability with camptothecin: 112

NFIB (GeneID 4781) #2
- log2 vehicle/camptothecin viability: -0.121
- viability with camptothecin: 95

The results go on.
HEPACAM (GeneID 220296) #1
- log2 vehicle/camptothecin viability: -0.364
- viability with camptothecin: 119

HEPACAM (GeneID 220296) #2
- log2 vehicle/camptothecin viability: 0.148
- viability with camptothecin: 71.4

HEPACAM (GeneID 220296) #3
- log2 vehicle/camptothecin viability: -0.132
- viability with camptothecin: 81.4

HEPACAM (GeneID 220296) #4
- log2 vehicle/camptothecin viability: -0.129
- viability with camptothecin: 90.1

IDS (GeneID 3423) #1
- log2 vehicle/camptothecin viability: -0.502
- viability with camptothecin: 92.5

IDS (GeneID 3423) #2
- log2 vehicle/camptothecin viability: -0.545
- viability with camptothecin: 66

IDS (GeneID 3423) #3
- log2 vehicle/camptothecin viability: -0.484
- viability with camptothecin: 42.5

IDS (GeneID 3423) #4
- log2 vehicle/camptothecin viability: 0.314
- viability with camptothecin: 65.9

COL1A2 (GeneID 1278) #1
- log2 vehicle/camptothecin viability: 0.109
- viability with camptothecin: 51.2

COL1A2 (GeneID 1278) #2
- log2 vehicle/camptothecin viability: -0.193
- viability with camptothecin: 70

COL1A2 (GeneID 1278) #3
- log2 vehicle/camptothecin viability: 0.0592
- viability with camptothecin: 98.2

COL1A2 (GeneID 1278) #4
- log2 vehicle/camptothecin viability: -0.672
- viability with camptothecin: 33.2
